This series can be described thus: general procedure: Fmoc solid-phase peptide synthesis. The note with it: conjugation step, TFA salts.

For the substance des-ciclesonide-Boc-Cysteine-Peptide, the conjugation yield turned out to be 62%. For the same substance, the “final LC-MS purity” value (RP-HPLC) is recorded as 97%.

These data come from US20210252159A1 (priority 2018, published 2021).
